Literature values in patent US6866870B2 (priority 2002, dated 2005).
At least one compound was matched to its structure with a doubt left.

Test system: Bacillus sp. spores
Details: reported elsewhere; cited from earlier work

[Na+].[O-]Cl [NaHClO3, sodium hypochlorite]
contact time required, best reported kill rate on spores: 15 to 60 min
